These are yes or no findings as the source states them, for the method shown. For part of these data: Binding seen in cells or lysates may run through a third protein. Some entries that bind do so weakly or less than the wild type. Tags and fused reporters may be left off the sequences shown.
What was measured:
[1] = biological target: N-terminal kinase domain of POD-6 (aa 1-412), yeast two-hybrid fusion (N. crassa) (UniProt V5IQR8); experiment: two-hybrid; Matchmaker Two-Hybrid system 3; Gal4 activation domain (pGADT7) and DNA-binding domain (pGBKT7) fusions co-expressed in S. cerevisiae AH109; growth on SD lacking adenine, histidine, leucine and tryptophan or on SD with 10 mM 3-amino-1,2,4-triazole lacking leucine, tryptophan and histidine
myc-COT-1 (N. crassa) [2] = biological target: T1, myc-COT-1 (N. crassa) (UniProt P38679); experiment: co-IP; displacement assay, the complex before displacement: myc-COT-1/HA-POD-6 complex precipitated from cell extracts; Western blot; mock-IP precipitate as control
T1 sequence: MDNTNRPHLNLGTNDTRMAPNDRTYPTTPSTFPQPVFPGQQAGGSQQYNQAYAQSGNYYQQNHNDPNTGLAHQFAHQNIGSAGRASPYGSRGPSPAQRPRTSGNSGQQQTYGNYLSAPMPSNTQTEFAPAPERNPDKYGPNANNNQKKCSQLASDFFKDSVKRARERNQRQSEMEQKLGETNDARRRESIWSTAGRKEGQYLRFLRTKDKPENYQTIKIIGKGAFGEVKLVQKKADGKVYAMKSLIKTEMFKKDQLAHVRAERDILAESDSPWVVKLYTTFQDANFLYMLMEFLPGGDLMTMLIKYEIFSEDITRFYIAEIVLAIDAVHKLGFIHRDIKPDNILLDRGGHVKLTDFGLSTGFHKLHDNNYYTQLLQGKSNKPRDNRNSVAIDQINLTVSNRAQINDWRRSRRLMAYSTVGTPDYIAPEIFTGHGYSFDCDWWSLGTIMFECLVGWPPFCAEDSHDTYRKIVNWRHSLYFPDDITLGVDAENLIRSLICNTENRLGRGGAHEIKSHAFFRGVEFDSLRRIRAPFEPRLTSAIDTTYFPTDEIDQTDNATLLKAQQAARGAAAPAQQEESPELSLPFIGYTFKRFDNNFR

myc-COT-1 (N. crassa) [3] = biological target: T1, myc-COT-1 (N. crassa); experiment: co-IP; cell extracts co-expressing both tagged proteins; less stringent washing than two washes with IP buffer (conditions not told); Western blot

B1: N-terminal kinase domain of POD-6 (aa 1-412), yeast two-hybrid fusion (domain or fragment, UniProt V5IQR8 1-412)
chain: MATLSVYGSDFLTTTKKKAIEDAKKMQTVVAEECNKSGKEAPPYQLEELIGKGSFGRVYKATDNKSNAVVAVKIIDIEESDRENPRLADTYSEFMKETSALKLLSNSGAKNINLILDVLPVGQSMWLITEYCAGGSVATLMKPTAPGGLQEKWIIPILREVAEAIFWVHKEGIIHRDIKCANVLVTETGAVQLCDFGVAGIVETKFDKRSTFIGTPHWMAPELFEPTPSYSTPVDIWAFGSMVYEIASGLPPNVMSGFNIPQLGNYIKSHAPRLEGDQYSDNLKDLVAFCLVEDPAKRPTIEQVQRHPYIFNTSSEYPTASLSNLVRGYKVWEAQGGIRKSLFAPVGAQGPSDYASTALSNDEWNFSTTVDFDRMAMDSDAQAVYDVYGHNVDFDFDEEQTRRPKPKGRRRP
binding [1]: binds

B2: HA-POD-6 (enzyme, UniProt V5IQR8 1-928)
chain: MATLSVYGSDFLTTTKKKAIEDAKKMQTVVAEECNKSGKEAPPYQLEELIGKGSFGRVYKATDNKSNAVVAVKIIDIEESDRENPRLADTYSEFMKETSALKLLSNSGAKNINLILDVLPVGQSMWLITEYCAGGSVATLMKPTAPGGLQEKWIIPILREVAEAIFWVHKEGIIHRDIKCANVLVTETGAVQLCDFGVAGIVETKFDKRSTFIGTPHWMAPELFEPTPSYSTPVDIWAFGSMVYEIASGLPPNVMSGFNIPQLGNYIKSHAPRLEGDQYSDNLKDLVAFCLVEDPAKRPTIEQVQRHPYIFNTSSEYPTASLSNLVRGYKVWEAQGGIRKSLFAPVGAQGPSDYASTALSNDEWNFSTTVDFDRMAMDSDAQAVYDVYGHNVDFDFDEEQTRRPKPKGRRRPPPPKLLALKAPLEKLFDPNTISGYNENSRAYYGLGPTSTSEAASAPEPPKDSDLNLRQYEPSSQAALRESLIDLDASFDGNDLSQFVDMETIKAGPRGSIDYAAFNPNPDFSKPPLSDPADMPMNINRRTQDWKFPSMAAPPASAHPEMSRFPWNEERSNDSHNDNFVRPPLIHHPTDPLGFQSTGYDSMPPKPPVDNRVSVGSLIDLDESLPMPTNDFTNREYTRPSTANSDAASVSGSEIGGANPFDLERHASLYQPLPVVRSSSVREPSIYVSDDSDYARVAQAPSEEHFIGTNGRGTPDYASSVNGGGSIGNGSIGGGSIGGGSIGSRTSSRAHSRADSYSYATDDDVGGYSAGEYAESEYLGGSMDPMAMSGEGRNRSRRRPSGMRPDPDSHHPPRGYGMGGSMNGNNGTGSHGGGHHGHQVHHGHGHGQYHGHGHGHSNSQGSTDMMHMPHVPEPPRVRVMQGMANREEVRDDVMRLLASFSEHLGFANAHVNTLPVRQGRRGSEVDTSV
binding (myc-COT-1 (N. crassa) [2]): binds
binding (myc-COT-1 (N. crassa) [3]): binds

From publication PMC3998894
